Consider nine molecules from patent US20130189283A1.

Numbering of substitutions follows the chain as printed. No constants are given. Whether binding was seen depends on the method and setting. Some results given as binding are weak or reduced against the parent protein; the word gives no strength.

Assay [1] addresses Soluble human TR2 (huTR2 long-huFc (IgG1)) (human). The assay is described as follows: BIAcore solution equilibrium assay; up to 50 µM antibody with 10 nM TR2 (FIG. 20A-B). (In general: Surface plasmon resonance follows binding to a sensor surface in real time, without labels.)
Assay [2] has the same target. The assay is described as follows: BIAcore solution equilibrium assay: antibody incubated with TR2, free TR2 read on immobilised antibody 16449.
The target is the same in assay [3]. The assay is described as follows: BIAcore solution equilibrium assay; 7 pM to 10 nM antibody with 1 nM TR2, free TR2 read on immobilised 16449.

B1: Antibody 10186 (antibody, V domains shown)
VH: QVQLQESGPGLVKPSQTLSLTCTVSGGSISSGDYAWSWIRQLPGKGLEWIGHIHNSGTTYYNPSLKSRVTISVDTSKKQFSLRLSSVTAADTAVYYCARDRGGDYYAGMDVWGQGTTVTVSS
VL: EIVLTQSPGTLSLSPGERATLSCRASQGISRSYLAWYQQKPGQAPSLLIYGASSRATGIPDRFSGSGSGTDFTLTISRLEPEDFAVYYCQQAGSSPWTFGQGTKVEIK
For the molecule B1, the binding entry in assay [1] is listed as “binds”.

B2: Antibody 16613 (antibody, V domains shown)
VH: B1 VH with A35F, A107Y
VL: B1 VL with Y33A, A92F
On to B2, for which the binding result in assay [2] is “no binding (tested: 50 nM antibody with 10 nM TR2)”.

B3: Antibody 1920 (antibody, V domains shown)
VH: B1 VH with A35F
VL: B1 VL with A92F
Take B3: the binding entry in assay [2] is given as “no binding (tested: 50 nM antibody with 10 nM TR2)”.

B4: Antibody 1910 (antibody, V domains shown)
VH: B1 VH with A35F, A107Y
VL: B1 VL
Consider B4, for which, in assay [2], the binding result is recorded as “no binding (tested: 50 nM antibody with 10 nM TR2)”.

B5: Antibody 1870 (antibody, V domains shown)
VH: B1 VH with A35F, Y105A, A107Y
VL: B1 VL with A92F
In the case of B5, in assay [3], the binding entry is “binds”.

B6: Antibody 1869 (antibody, V domains shown)
VH: B1 VH with A35F, D104A, A107Y
VL: B1 VL with A92F
In the case of B6, the binding entry in assay [3] is listed as “binds”.

B7: Antibody 16449 (antibody, V domains shown)
VH: B1 VH with A35F, A107Y
VL: B1 VL with A92F
Regarding B7, in assay [3], the binding entry is given as “binds”.

B8: Antibody 1913 (antibody, V domains shown)
VH: B1 VH with A107Y
VL: B1 VL with A92F
Turning to B8, the binding entry in assay [2] is given as “no binding (tested: 50 nM antibody with 10 nM TR2)”.

B9: Antibody 1922 (antibody, V domains shown)
VH: B1 VH with A35F, Y105A, Y106A
VL: B1 VL with A92F
For the molecule B9, the binding result in assay [2] is “no binding (tested: 50 nM antibody with 10 nM TR2)”.
